Measurements as given in PubChem BioAssay AID445 (National Center for Advancing Translational Sciences (NCATS), 2006).
Some of the results follow. Further columns of the screen follow, without active or inactive calls. Compounds called inactive in the main read-out are mostly missing here. Potencies come from curve fits of mixed quality, noted in brackets.

Experiment: IkB Signaling
Settings: ABC-DLBCL IkBa-CBG/CBR dual luciferase ratio (green luciferase fused to IkBa over red control in OCI-Ly3 lymphoma cells), 4 h; measured here: control luc red channel unless noted
Method in brief: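 Luminescence ratio of IκBα-fused green versus native red beetle luciferase in OCI-Ly3 cells, 4 h post-doxycycline with compound; red signal alone, scaled from basal (0%) to zero light (-100%), flagged nonspecific or cytotoxic effects.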

SMILES	AC50
Cc1cc(NC(=O)c2cccc(S(=O)(=O)N3CC(c4ccccc4)CC3=O)c2)no1 (stereo not drawn)	15.8 µM [falling, partial curve]
Cc1ccc(C)c(NC(=O)n2ncc3cc(Cl)ccc32)c1	25.1 µM [falling, partial curve]
COCCCNC(=O)Cn1cnc2sc(C)c(S(=O)(=O)N3CCC(C)CC3)c2c1=O	0.01 µM [falling, full curve]
CCn1c(SCC(=O)O)nnc1-c1cc2c(C)nn(-c3ccccc3)c2s1	25.1 µM [falling, partial curve]
Cc1ccc(CCNC(=O)c2ccc3nc(N4CCC(C)CC4)sc3c2)cc1	15.8 µM [falling, partial curve]
COc1ccc(-c2nc3sc(CCNC(=O)c4ccco4)c(C)n3n2)cc1	39.8 µM [falling, single point]
Cn1cc(CN(C(=O)Nc2ccccc2)C2CCCCC2)c2ccccc21	20 µM [falling, single point]
Cn1c(Cn2cnc3ccccc32)nnc1SCC(=O)CC(=O)Nc1ccccc1	7.94 µM [falling, partial curve]
COc1cc2c(cc1OC)CN(C(=O)Nc1ccccc1)CC2	5.01 µM [falling, partial curve]
COc1ccccc1NC(=O)c1ccc(COc2ccc(C)c(C)c2)o1	31.6 µM [falling, single point]
Cc1cccc(N2CCN(S(=O)(=O)c3c(C)nc4scc(C)n4c3=O)CC2)c1C	31.6 µM [falling, single point]
CCn1cc2nc(SCc3cc(C)ccc3C)n(CCc3ccccc3)c(=O)c2n1	39.8 µM [falling, single point]
CCCCn1c(=N)n(CCCOc2ccc(F)cc2)c2ccccc21	20 µM [falling, partial curve]
COC(=O)c1c(C)oc2ccc(N(C(=O)c3ccncc3)S(=O)(=O)c3ccc(OC)cc3)cc12	7.94 µM [falling, full curve]
CCc1ccc(-n2c(=O)c3c4c(sc3n(Cc3ccccc3C#N)c2=O)CCC4)cc1	7.94 µM [falling, full curve, poor fit]
CCc1cc2ccc(C)cc2nc1SCC(=O)N1CCN(C(=O)c2ccco2)CC1	15.8 µM [falling, partial curve]
O=C(Nc1cccc(NC(=O)C2CC3CCCC(C2)C3=O)n1)C1CC2CCCC(C1)C2=O (stereo not drawn)	12.6 µM [falling, partial curve]
Nc1nc2n(n1)C(c1cccc(Br)c1)CC(c1ccc(F)cc1)N2 (stereo not drawn)	6.31 µM [rising, single point]
CCOC(=O)c1cc2oc(C)cc2n1CC(=O)OC1CCCCC1	15.8 µM [falling, partial curve]
Cc1ccc(CCNC(=O)C2CCCN(c3nnc(C)c4c(C)n(-c5ccccc5)nc34)C2)cc1 (stereo not drawn)	25.1 µM [falling, partial curve]
Cc1ccc2c(c1)C1CN(C)CCC1N2C(=O)Nc1ccc(Cl)cc1 (stereo not drawn)	31.6 µM [falling, single point]

A draw from above in order of formula weight, low to high:
SMILES	AC50
Cn1cc(CN(C(=O)Nc2ccccc2)C2CCCCC2)c2ccccc21	20 µM [falling, single point]
COc1ccc(-c2nc3sc(CCNC(=O)c4ccco4)c(C)n3n2)cc1	39.8 µM [falling, single point]
Cn1c(Cn2cnc3ccccc32)nnc1SCC(=O)CC(=O)Nc1ccccc1	7.94 µM [falling, partial curve]

Exported with bars between the fields: part of the list above.
SMILES | AC50
CCc1cc2ccc(C)cc2nc1SCC(=O)N1CCN(C(=O)c2ccco2)CC1 | 15.8 µM [falling, partial curve]
O=C(Nc1cccc(NC(=O)C2CC3CCCC(C2)C3=O)n1)C1CC2CCCC(C1)C2=O (stereo not drawn) | 12.6 µM [falling, partial curve]

Additional structures

SMILES	AC50
CC1=C(c2ccc(F)cc2)S(=O)(=O)N=C1N1CCC(C(=O)NCCc2cccc(C)c2)CC1	31.6 µM [falling, single point]
Cc1ccc(CSc2ncc(Cl)c(C(=O)Nc3nnc(C)s3)n2)cc1	15.8 µM [falling, partial curve]
COc1cccc(-c2nc(CS(=O)(=O)CC(=O)NCc3cccc(Cl)c3)c(C)o2)c1	0.00631 µM [falling, full curve, poor fit]
COc1ccc(-c2cnnn2-c2ccc(NC(=O)c3ccccc3OC)cc2)cc1	3.16 µM [falling, partial curve]
COc1ccc(CCNC(=O)CN2C(=O)COc3ccc(S(=O)(=O)N4CCCC4)cc32)c(OC)c1	12.6 µM [falling, partial curve]
Cc1c(C(=O)NCc2cccc(Cl)c2)sc2nc3n(c(=O)c12)CCCC3	12.6 µM [falling, partial curve]
Cc1c(C(=O)NCc2cccc(Br)c2)oc2ccc3c(c12)C(=O)CC(C)(C)O3	1.58 µM [rising, partial curve, poor fit]
Cc1csc2nc(=O)c3ccccc3n12	2 µM [falling, full curve, poor fit]
COc1ccc(-c2nc3sc(CCNC(=O)C(=O)Nc4cccc(NC(C)=O)c4)c(C)n3n2)cc1	3.98 µM [rising, single point]
CCNC(=O)C1CCN(S(=O)(=O)c2ccc3c(c2)CCCN3C(C)=O)CC1	25.1 µM [rising, single point]
Cn1c(SCc2nnc(-c3ccccc3Br)o2)nc2sc3c(c2c1=O)CCC3	20 µM [falling, partial curve]
CCOc1cc(C(=O)Nc2ccc(-c3cn4cccnc4n3)cc2)cc(OCC)c1OCC	31.6 µM [falling, single point]
Cn1c(=O)oc2cc(S(=O)(=O)CCC(=O)N3CCN(c4cccc(Cl)c4)CC3)ccc21	31.6 µM [falling, single point]
CC1CCc2c(sc(N)c2C(N)=O)C1 (stereo not drawn)	15.8 µM [falling, partial curve]
O=C(CCN1CCN(c2ccccc2F)CC1)c1ccc(Br)cc1	25.1 µM [falling, partial curve]
Cc1cccc(NC(=O)C2CCCN2S(=O)(=O)c2ccc3nc(-c4ccccc4)[nH]c3c2)c1 (stereo not drawn)	7.94 µM [falling, partial curve]
Cc1ccc2c(c1)c1c(c(=O)n(-c3ccccc3)c(=O)n1CC(=O)NCC1CCCO1)n2C (stereo not drawn)	5.01 µM [falling, partial curve, poor fit]
COc1cc2ncc3c(-c4ccc(C)cc4)nn(-c4ccc(F)cc4F)c3c2cc1OC	12.6 µM [falling, partial curve]
COc1ccc(Cn2ccnc2SCC(=O)Nc2nc3ccccc3s2)cc1	12.6 µM [falling, partial curve]
Nn1c(Nc2ccccc2)nc2sc3c(c2c1=O)CCC3	12.6 µM [falling, partial curve]
Cc1cc(Nc2ccccc2C)n2nc(Cc3ccc(Cl)cc3)nc2n1	39.8 µM [falling, single point]

SMILES	AC50
Cc1ccn2c(Nc3ccc4c(c3)OCCO4)c(-c3ccc(C)o3)nc2c1	20 µM [falling, partial curve]
O=C(Nc1ccc2nc(SCC(=O)N3CCc4ccccc43)sc2c1)c1ccccc1	2.51 µM [falling, partial curve]
CCCCNC(=O)CSc1nc2nc(C)c(Cc3c(F)cccc3Cl)c(C)n2n1	39.8 µM [falling, single point]
CC(=O)c1ccc(NC(=O)COc2ccccc2-c2nc(-c3ccc(C)cc3)no2)cc1	10 µM [falling, partial curve]
Cc1ccc(OCC(=O)Nc2ccccc2C(=O)OCc2cc(=O)n3ccsc3n2)cc1	1.58 µM [falling, partial curve]
O=C(C1CCC(Cn2c(=O)c3sccc3n(Cc3ccccc3)c2=O)CC1)N1CCOCC1 (stereo not drawn)	6.31 µM [rising, partial curve]
CCCCCn1c(-c2ccco2)nc2nc3ccccc3nc21	12.6 µM [falling, partial curve]
Cc1ccc(Cl)cc1N1CCN(C(=O)c2cnn(C)c2C2CCN(C(=O)OC(C)(C)C)CC2)CC1	15.8 µM [falling, partial curve]
Cc1ccc(-c2nnc(Nc3ccccc3O)c3ccccc23)cc1	0.631 µM [rising, partial curve]
COc1cc(OC)c(NC(=O)N2CCc3c([nH]c4ccccc34)C2c2ccccc2F)cc1Cl (stereo not drawn)	20 µM [falling, partial curve, poor fit]
Cc1cc(Cl)c2c(c1)[C@]1(C(=O)N2)[C@@H]2C(=O)N(Cc3ccccc3)C(=O)[C@@H]2[C@@H]2CCCN21	5.01 µM [falling, partial curve]
O=C(Nc1ccccc1F)c1ccc(Cn2nc(N3CCN(c4ccccc4)CC3)ccc2=O)o1	39.8 µM [falling, partial curve]
O=C(CCC(=O)N1CC2CCCN2c2ccccc21)NCc1ccc(F)cc1 (stereo not drawn)	7.94 µM [falling, partial curve]
Cc1cc(C)c(NC(=O)CN2C(=O)c3cccnc3Sc3ccccc32)c(C)c1	12.6 µM [falling, partial curve, poor fit]
CCOc1ccccc1CNC(=O)c1ccc(CS(=O)Cc2cccc(Cl)c2)o1 (stereo not drawn)	31.6 µM [falling, single point]
COc1cccc(C2CC(=O)Nc3c2ccc(C)c3C)c1OC (stereo not drawn)	5.01 µM [falling, partial curve]
CSc1ccc(C2C(C(=O)Nc3ccccc3)=C(C)Nc3nc4ccccc4n32)cc1 (stereo not drawn)	7.94 µM [falling, full curve]
CSc1ccc(CNC(=O)Cn2nc(N3CCN(c4ccccc4)CC3)ccc2=O)cc1	31.6 µM [falling, single point]
COc1cccc(NC(=O)CSc2nnc(-c3cccc(OC)c3)o2)c1	1.58 µM [falling, partial curve]
Cc1ccc(NC(=O)CSc2ncc(-c3ccccc3)[nH]2)cc1	20 µM [falling, partial curve]
O=C(CSc1nc2c([nH]c3ccccc32)c(=O)n1-c1ccc(F)cc1)N1CCc2ccccc21	1.58 µM [rising, full curve]
